At least one structure is not confirmed: it was looked up by name or label, or the drawing left a doubt.
Assays:
Experiment in all cases: Antimicrobial testing, agar dilution method
St. aureus = format: cell-based, Staphylococcus aureus
Procedure: (§1) The antimicrobial properties of the, 5-bis(4-methoxyphenyl)-1-hexyl-2-phenyl-1H-imidazole was studied by the method of agar dilution. Test solutions of each compound was prepared in concentration of 1% using dimethylformamide as a solvent then they are diluted in physiological solution to obtain the final experimental dilutions 1:100, 1:200, 1:400, 1:800. The effect of these substances are compared with furacillin in a controllable study. The testing microbes used were gram positive bacteria St. aureus, gram negative bacteria E. Coli, Ps. aeruginosa and Candida albicans fungi were taken. The experiments used for this survey were meat-pentonlu agar (EPA) for cultivation of bacteria and Saburo environment for fungi. Each experiment used 1 ml of test solution on each plate 500 min. Add 2 drops of emulsified with microbes feel. All experimental samples were taken from the agar after 10, 20, 40, 60 minutes in the environment on the basis of Patrk planted. Bacteria were cultivated at a temperature of 37° C. for 1 day and the mushroom was kept in a thermostat for […] at a temperature of 28° C. Then the results were checked.

E. Coli = format: cell-based, Escherichia coli
Procedure: as §1

Ps. aeruginosa = format: cell-based, Pseudomonas aeruginosa
Procedure: as §1

Candida albicans = format: cell-based
Procedure: as §1

[1] = dilution rate 1:100, exposure time 10 min
[2] = dilution rate 1:100, exposure time 20 min
[3] = dilution rate 1:100, exposure time 40 min
[4] = dilution rate 1:100, exposure time 60 min
[5] = dilution rate 1:200, exposure time 10 min
[6] = dilution rate 1:200, exposure time 20 min
[7] = dilution rate 1:200, exposure time 40 min
[8] = dilution rate 1:200, exposure time 60 min
[9] = dilution rate 1:400, exposure time 10 min
[10] = dilution rate 1:400, exposure time 20 min
[11] = dilution rate 1:400, exposure time 40 min
[12] = dilution rate 1:400, exposure time 60 min
[13] = dilution rate 1:800, exposure time 10 min
[14] = dilution rate 1:800, exposure time 20 min
[15] = dilution rate 1:800, exposure time 40 min
[16] = dilution rate 1:800, exposure time 60 min

## NC(=O)N/N=C/c1ccc([N+](=O)[O-])o1 [Furacilin]
St. aureus; [1]
  antimicrobial activity (+/−): −
St. aureus; [2]
  antimicrobial activity (+/−): −
St. aureus; [3]
  antimicrobial activity (+/−): −
St. aureus; [4]
  antimicrobial activity (+/−): −
St. aureus; [5]
  antimicrobial activity (+/−): +
St. aureus; [6]
  antimicrobial activity (+/−): +
St. aureus; [7]
  antimicrobial activity (+/−): +
St. aureus; [8]
  antimicrobial activity (+/−): +
St. aureus; [9]
  antimicrobial activity (+/−): +
St. aureus; [10]
  antimicrobial activity (+/−): +
St. aureus; [11]
  antimicrobial activity (+/−): +
St. aureus; [12]
  antimicrobial activity (+/−): +
St. aureus; [13]
  antimicrobial activity (+/−): +
St. aureus; [14]
  antimicrobial activity (+/−): +
St. aureus; [15]
  antimicrobial activity (+/−): +
St. aureus; [16]
  antimicrobial activity (+/−): +
E. Coli; [1]
  antimicrobial activity (+/−): −
E. Coli; [2]
  antimicrobial activity (+/−): −
E. Coli; [3]
  antimicrobial activity (+/−): −
E. Coli; [4]
  antimicrobial activity (+/−): −
E. Coli; [5]
  antimicrobial activity (+/−): +
E. Coli; [6]
  antimicrobial activity (+/−): +
E. Coli; [7]
  antimicrobial activity (+/−): +
E. Coli; [8]
  antimicrobial activity (+/−): +
E. Coli; [9]
  antimicrobial activity (+/−): +
E. Coli; [10]
  antimicrobial activity (+/−): +
E. Coli; [11]
  antimicrobial activity (+/−): +
E. Coli; [12]
  antimicrobial activity (+/−): +
E. Coli; [13]
  antimicrobial activity (+/−): +
E. Coli; [14]
  antimicrobial activity (+/−): +
E. Coli; [15]
  antimicrobial activity (+/−): +
E. Coli; [16]
  antimicrobial activity (+/−): +
Ps. aeruginosa; [1]
  antimicrobial activity (+/−): +
Ps. aeruginosa; [2]
  antimicrobial activity (+/−): +
Ps. aeruginosa; [3]
  antimicrobial activity (+/−): +
Ps. aeruginosa; [4]
  antimicrobial activity (+/−): +
Ps. aeruginosa; [5]
  antimicrobial activity (+/−): +
Ps. aeruginosa; [6]
  antimicrobial activity (+/−): +
Ps. aeruginosa; [7]
  antimicrobial activity (+/−): +
Ps. aeruginosa; [8]
  antimicrobial activity (+/−): +
Ps. aeruginosa; [9]
  antimicrobial activity (+/−): +
Ps. aeruginosa; [10]
  antimicrobial activity (+/−): +
Ps. aeruginosa; [11]
  antimicrobial activity (+/−): +
Ps. aeruginosa; [12]
  antimicrobial activity (+/−): +
Ps. aeruginosa; [13]
  antimicrobial activity (+/−): +
Ps. aeruginosa; [14]
  antimicrobial activity (+/−): +
Ps. aeruginosa; [15]
  antimicrobial activity (+/−): +
Ps. aeruginosa; [16]
  antimicrobial activity (+/−): +
Candida albicans; [1]
  antimicrobial activity (+/−): −
Candida albicans; [2]
  antimicrobial activity (+/−): −
Candida albicans; [3]
  antimicrobial activity (+/−): +
Candida albicans; [4]
  antimicrobial activity (+/−): +
Candida albicans; [5]
  antimicrobial activity (+/−): +
Candida albicans; [6]
  antimicrobial activity (+/−): +
Candida albicans; [7]
  antimicrobial activity (+/−): +
Candida albicans; [8]
  antimicrobial activity (+/−): +
Candida albicans; [9]
  antimicrobial activity (+/−): +
Candida albicans; [10]
  antimicrobial activity (+/−): +
Candida albicans; [11]
  antimicrobial activity (+/−): +
Candida albicans; [12]
  antimicrobial activity (+/−): +
Candida albicans; [13]
  antimicrobial activity (+/−): +
Candida albicans; [14]
  antimicrobial activity (+/−): +
Candida albicans; [15]
  antimicrobial activity (+/−): +
Candida albicans; [16]
  antimicrobial activity (+/−): +
